Assay results taken from PubChem BioAssay AID1347076 (National Center for Advancing Translational Sciences (NCATS), 2019).
Values joined by “and” are separate entries in the source; they are usually repeats but may differ in a detail not shown here. Equal entries are not always repeated. The campaign covered roughly 400,000 compounds. About 13,000 (3.2%) were called active. The shares of active, inactive and inconclusive entries below differ from those in the screen. Calls follow the shape of the dose curve; as a rule, active = well fitted cell-killing curve with a large enough effect; inconclusive = small, poorly fitted or top-dose-only effect, or effect the other way; inactive = flat fitted curve, though single readings scatter. Potencies of inconclusive entries are doubtful fits and often do not repeat.

assay: qHTS assay for MDR1-selective chemotherapeutics: Primary screen using the drug-selected MDR subline cells KB-V1; conditions: KB-V1 MDR cells viability, CellTiter-Glo, 72 h; activity change, negative = cytotoxicity: at 46.1 µM (top of the series); also: nearly all actives have a fitted effect of over 60% in size
Outline: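 qHTS viability screen in drug-selected KB-V1 MDR cells: 72 h compound treatment at 37 degrees C, ATP luminescence end point.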
% is scaled to controls: 0 for no effect and ±100 for the full control effect; potency is read from the fitted curve at half-maximal effect.

| Compound | Potency | activity change, negative = cytotoxicity |
| --- | --- | --- |
| Cc1nn(C)cc1C(C(=O)NC1CCCCC1)N(C(=O)Cc1cccs1)c1ccc(Cl)cc1 (configuration not stated) | inconclusive: 6.51 µM [cytotoxic, partial curve] |  |
| O=C(Nc1ccccc1C(=O)NC1CC1)c1ccc([N+](=O)[O-])o1 | inconclusive: 20.6 µM [cytotoxic, partial curve] |  |
| O=C(O)c1cccc(N2C(=O)c3cccc4c(Cl)ccc(c34)C2=O)c1 | inactive |  |
| Cn1c(CCN2CCCCC2)nc2cc(NS(=O)(=O)c3ccccc3)ccc21 | inactive |  |
| CCOC(=O)C1=C(C)N=c2s/c(=C/c3ccc(OCC(=O)O)c(OC)c3)c(=O)n2C1c1ccc(Cl)cc1 (configuration not stated) | inconclusive: 13 µM [rising, partial curve, poor fit] |  |
| O=C1C=C(O)c2[nH]c(=O)ccc2C1=O | inconclusive: 16.4 µM [cytotoxic, single point] |  |
| O=C1c2ccccc2-c2onc3ccc(NCCCn4ccnc4)c1c23 |  | inconclusive: -34.2% [cytotoxic] |
| Cc1c(C(=O)NCc2ccco2)oc2ccc(S(=O)(=O)N3CCC4(CC3)OCCO4)cc12 | inactive |  |
| CN1C[C@@H]2[C@@H]3C(=O)N(Cc4ccccc4)C(=O)[C@@H]3[C@](Cc3ccccc3)(C1=O)N2C(=O)c1ccc(Cl)c(Cl)c1 | inconclusive: 29.1 µM [rising, single point] |  |
| CN(c1ccccc1)S(=O)(=O)c1cccc(NC(=O)CSc2ncn[nH]2)c1 | inactive |  |
| COc1ccc(C(=O)CSc2nc3nc(C)cc(C)n3n2)cc1OC | inconclusive: 18.4 µM [cytotoxic, partial curve] |  |
| O=C(CCCn1c(=S)[nH]c2cc3c(cc2c1=O)OCO3)N1CCN(c2ccccc2F)CC1 | active: 16.4 µM |  |
| O=C(Nc1ccncc1)c1ccc(NS(=O)(=O)c2cccc(F)c2)cc1 | inconclusive: 18.4 µM [cytotoxic, single point] |  |
| CCn1c(SCC(=O)N2CCCC2)nnc1-c1ccc(S(=O)(=O)N2CCCCCC2)cc1 | inconclusive: 16.4 µM [cytotoxic, single point] |  |
| COc1ccc(CCNC(=O)c2c(O)c3cc(OC)c(OC)cc3[nH]c2=O)cc1OC | inconclusive: 5.8 µM [cytotoxic, partial curve, poor fit] |  |
| CC(C)CCC[C@](C)(O)c1ccc(C(=O)O)cc1O | inconclusive: 29.1 µM [rising, single point] |  |
| COc1cc2c(cc1NC(=O)CSc1cccc[n+]1[O-])oc1ccccc12 | active: 11.6 µM |  |
| COc1cc(OC)c(N(C)S(=O)(=O)c2cccc(C(=O)OCC(=O)N3CCOCC3)c2)cc1Cl | inconclusive: 32.6 µM [cytotoxic, single point] |  |
| CCOC(=O)c1nn(-c2ccc(F)cc2)c2nc(-c3ccccc3)c(C#N)c(=O)n12 | inconclusive: 14.6 µM [cytotoxic, partial curve] |  |
| O=C(NCc1ccccc1)NC1(C(=O)N2CCOCC2)CCCCC1 | inactive |  |
| CC(C)[C@@H](C(=O)N1CCCC1)N1C(=O)N2CCc3c([nH]c4ccccc34)[C@@]2(C)C1=O | inactive |  |
| CC(C)C(C(=O)NCc1ccco1)N(CC1CCCO1)C(=O)CNS(=O)(=O)c1ccccc1 (configuration not stated) | inconclusive: 29.1 µM [cytotoxic, single point] |  |
| Cc1cc(C)cc(NC(=O)[C@H](NC(=O)[C@@H]2Cc3ccccc3CN2)c2ccccc2)c1 | inactive |  |

| Compound | Potency | activity change, negative = cytotoxicity |
| --- | --- | --- |
| C#CCN(C[C@@H]1[C@@H](OC(=O)NC2CC2)[C@@H](OC(=O)NC2CC2)Cn2c(=O)ccc(=O)n21)S(=O)(=O)c1ccc(C)cc1 | inconclusive: 18.4 µM [rising, single point] |  |
| O=C(N/N=C/c1cc([N+](=O)[O-])ccc1O)/C(=C\c1cccs1)NC(=O)c1ccccc1 | inconclusive: 18.4 µM [cytotoxic, single point] |  |
| Cc1ccc2c(CNCc3ccccc3)cc(=O)oc2c1 | active: 3.66 µM |  |
| CCCCN(C)C(=O)C1CCC(CNS(=O)(=O)c2ccc3c(c2)CC(C)N3C(=O)C2CC2)CC1 (configuration not stated) | inconclusive: 23.1 µM [cytotoxic, partial curve, poor fit] |  |
| Cc1ccc(S(=O)(=O)N2CCOC23CCN(S(=O)(=O)c2c(C)cc(C)cc2C)CC3)cc1 | inconclusive: 16.4 µM [cytotoxic, partial curve] |  |
| COc1ccccc1C(=O)Nc1nc2nc(-c3ccccc3)cc(=O)n2[nH]1 | inconclusive: 18.4 µM [rising, single point] |  |
| Cc1nc2ccccc2c2oc(C(=O)N3CC(C)CC(C)C3)cc12 (configuration not stated) | inactive |  |
| CCCCn1nnnc1C(c1ccccc1)N1CCN(c2ccccc2OC)CC1 (configuration not stated) | inactive |  |
| COc1ccc(/C=N/N2C(=N)SCC2=O)cc1 | active: 2.59 µM |  |
| O=C(c1cccc(F)c1)N1CCN(S(=O)(=O)c2ccc(C(F)(F)F)cc2)CC1 | inconclusive: 29.1 µM [cytotoxic, single point] |  |
| COc1ccc(Cl)cc1NC(=O)CSc1ncnc2c1oc1ccccc12 | inactive |  |
| COc1ccc(OCCC(=O)OCC(=O)NCc2ccccc2)cc1 | inconclusive: 1.84 µM [rising, partial curve, poor fit] |  |
| O=C(Nc1ccc(-c2noc(CCc3ccccc3)n2)cc1)c1cccnc1 | active: 16.4 µM |  |
| COc1cccc(CN2CCC(C(=O)NC(C)c3cccc4ccccc34)CC2)c1 (configuration not stated) | inactive |  |
| CCCCNC(=O)[C@H]1C[C@H]1[C@@H](O)[C@H](CO)NC(=O)[C@H](CC(C)C)NC(=O)OC(C)(C)C | inconclusive: 29.1 µM [rising, single point] |  |
| Cc1cc2nc(-c3ccc[nH]c3=O)[nH]c2cc1C | inconclusive: 9.2 µM [cytotoxic, partial curve, poor fit] |  |
| O=C(N/N=C1\CCSc2ccc(F)cc21)c1cccnc1 | inactive |  |
| O=C(c1ccc(CNS(=O)(=O)c2cccc(C(F)(F)F)c2)cc1)N1CCOCC1 | active: 13 µM |  |
| COc1cc(/C=C2/N=C(c3ccccc3)OC2=O)c(F)cc1OCc1ccccc1 | inconclusive: 14.6 µM [cytotoxic, single point] |  |
| COC(=O)c1sccc1NC(=O)CSc1ccccc1NS(=O)(=O)c1ccc(Br)cc1 | active: 4.11 µM |  |
| COC(=O)c1c(NC(=O)c2nc(SCc3cccc(C)c3)ncc2Cl)sc2c1CCCC2 | inactive |  |
| COc1ccc(NC(=O)CN2C(=O)C(C)Oc3ccccc32)c(OC)c1 (configuration not stated) | active: 16.4 µM |  |
| CCC(=O)N1CCN(c2ccccc2NC(=O)COc2cc(C)ccc2C(C)C)CC1 | inconclusive: 23.1 µM [cytotoxic, single point] |  |

Random excerpt: 3 entries already listed.

| Compound | Potency | activity change, negative = cytotoxicity |
| --- | --- | --- |
| COc1cccc(CN2CCC(C(=O)NC(C)c3cccc4ccccc34)CC2)c1 (configuration not stated) | inactive |  |
| CCCCN(C)C(=O)C1CCC(CNS(=O)(=O)c2ccc3c(c2)CC(C)N3C(=O)C2CC2)CC1 (configuration not stated) | inconclusive: 23.1 µM [cytotoxic, partial curve, poor fit] |  |
| CC(C)CCC[C@](C)(O)c1ccc(C(=O)O)cc1O | inconclusive: 29.1 µM [rising, single point] |  |

Single records (already shown).
`COc1ccc(/C=N/N2C(=N)SCC2=O)cc1` is listed as Potency: active: 2.59 µM
`Cc1ccc(S(=O)(=O)N2CCOC23CCN(S(=O)(=O)c2c(C)cc(C)cc2C)CC3)cc1` is listed as Potency: inconclusive: 16.4 µM [cytotoxic, partial curve]

The listing continues.

| Compound | Potency | activity change, negative = cytotoxicity |
| --- | --- | --- |
| Cc1c(CCC(C)C)c(=O)n2c([nH]c3ccccc32)c1C#N | inconclusive: 14.6 µM [cytotoxic, partial curve] |  |
| O=C(CO/N=C/c1ccccc1OC(F)F)N1CCc2ccccc21 | inconclusive: 18.4 µM [rising, single point] |  |
| CCN(CC)c1ccc(Nc2nc(N3CCOCC3)c3ccccc3n2)cc1 | active: 2.59 µM |  |
| O=C(c1ccccc1)C1CCN(C(=O)c2ccc(Cl)cc2)CC1 | inactive |  |
| CC1(C)C(=O)NCCN1C(=O)CSc1nccc(-c2ccc(Br)cc2)n1 | inconclusive: 18.4 µM [cytotoxic, single point] |  |
| O=C(O)C1CCC(C(=O)O)O1 (configuration not stated) | inconclusive: 32.6 µM [rising, partial curve, poor fit] |  |
| O=C1[C@H](Cc2ccccc2)NCCCC[C@H](c2ccco2)N1Cc1ccccc1 | inconclusive: 11.6 µM [cytotoxic, partial curve] and inconclusive: 29.1 µM [cytotoxic, single point] |  |
| COc1cc(NC(=O)CC(c2ccc(C)cc2)N2Cc3ccccc3C2=O)cc(OC)c1 (configuration not stated) | inconclusive: 23.1 µM [cytotoxic, partial curve, poor fit] |  |
| CCOC(=O)C(=CNc1cc(C)nn1-c1ccc(Cl)cc1)C(=O)OCC | inactive |  |
| Cc1cc(Cl)ccc1OCC(=O)NNC(=O)c1ccco1 | inconclusive: 29.1 µM [cytotoxic, single point] |  |
| COc1ccc(C(=O)NN2CCOCC2)cc1[N+](=O)[O-] | inconclusive: 18.4 µM [rising, single point] |  |
| Cc1cc(C(=O)NC2CCCc3c2cnn3-c2cccc(C)c2C)n(C)n1 (configuration not stated) | inconclusive: 0.184 µM [cytotoxic, full curve, poor fit] |  |
| CC(C)C[C@@H](CN1CCC[C@H]1CN1C(=O)C(=O)NC[C@@H]1Cc1ccccc1)N1C[C@H](Cc2ccc(O)cc2)N(CC2CCCCCC2)C(=O)C1=O | inactive |  |
| O=C(c1ccccc1)N1CCN=C1SCc1ccc([N+](=O)[O-])cc1 | inconclusive: 23.1 µM [cytotoxic, single point] |  |
| COc1cccc(CNc2nc3cc(-c4ccsc4)sc3c(=O)n2C)c1OC | active: 2.59 µM |  |
| Cc1cccc(Nc2nn3c(=O)c4ccccc4nc3s2)c1 | inconclusive: 0.0291 µM [rising, full curve] |  |
| COC1CCCN(C(=O)c2ccc3oc(Cc4ccc(Cl)cc4)nc3c2)C1 (configuration not stated) | active: 2.59 µM |  |
| C/C=C\C(=O)Nc1cccc(C2=NOC3(C2)C[C@@H](C(N)=O)N(C(=O)c2ccccc2)C3)c1 (some centres not stated) | inactive |  |
| O=S(=O)(c1ccccc1)N1N=C(c2ccc(Cl)cc2)CC1c1ccco1 (configuration not stated) | inconclusive: 9.2 µM [cytotoxic, partial curve, poor fit] |  |
| Cc1noc(-c2ccc(N3CCC(C)CC3)c([N+](=O)[O-])c2)n1 | inactive |  |
| CSc1ccc(COC(=O)c2cc([N+](=O)[O-])ccc2N2CCOCC2)cc1 | active: 0.411 µM |  |
